Measured values reported in patent US20160207973A1.
Numbering of substitutions follows the chain as printed. No constants are given. Whether binding was seen depends on the method and setting. Some binding calls cover weakened binding; strength is not graded here. For part of these data: Tags and fused reporters may be left off the sequences shown.

Amino acid sequences for entries named in this document (tags omitted). Residues count along the entry.
UniProt P36894, residues 24-152: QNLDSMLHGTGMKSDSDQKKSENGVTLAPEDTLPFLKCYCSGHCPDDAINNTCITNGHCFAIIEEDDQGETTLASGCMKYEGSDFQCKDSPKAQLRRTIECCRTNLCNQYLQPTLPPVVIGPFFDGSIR
UniProt P27037: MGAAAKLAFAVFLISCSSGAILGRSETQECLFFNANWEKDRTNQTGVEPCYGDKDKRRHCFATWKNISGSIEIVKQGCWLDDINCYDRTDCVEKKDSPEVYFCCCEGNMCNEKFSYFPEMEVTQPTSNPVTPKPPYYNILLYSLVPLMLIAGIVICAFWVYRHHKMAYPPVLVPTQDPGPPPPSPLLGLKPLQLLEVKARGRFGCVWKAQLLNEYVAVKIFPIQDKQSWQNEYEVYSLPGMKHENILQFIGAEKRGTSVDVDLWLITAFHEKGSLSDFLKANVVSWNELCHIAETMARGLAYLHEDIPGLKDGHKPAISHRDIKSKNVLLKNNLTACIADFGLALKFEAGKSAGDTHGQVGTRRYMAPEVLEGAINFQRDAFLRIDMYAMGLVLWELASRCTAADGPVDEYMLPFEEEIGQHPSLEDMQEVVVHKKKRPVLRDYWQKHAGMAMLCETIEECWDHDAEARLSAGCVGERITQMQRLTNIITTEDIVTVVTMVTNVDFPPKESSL

Legend:
[1] = target: T1, ALK6 receptor-human-IgG1-Fc fusion protein (human) (UniProt O00238); assay: Example 2
T1 sequence (looked up): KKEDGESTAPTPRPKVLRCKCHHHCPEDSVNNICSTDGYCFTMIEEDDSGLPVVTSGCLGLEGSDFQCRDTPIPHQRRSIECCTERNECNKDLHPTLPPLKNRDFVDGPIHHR

[2] = target: ALK3 receptor-human-IgG1-Fc fusion protein (human) (UniProt P36894); assay: Example 2
[3] = target: T1, ALK6 receptor-human-IgG1-Fc fusion protein (human); assay: as stated in Example 4
[4] = target: ALK3 receptor-human-IgG1-Fc fusion protein (human) (UniProt P36894); assay: as stated in Example 4
[5] = target: T1, ALK6 receptor-human-IgG1-Fc fusion protein (human); assay: BLI (Octet), receptor-Fc on anti-human IgG tips
[6] = target: T2, ActRIIB receptor-human-IgG1-Fc fusion protein (human) (UniProt Q13705); assay: BLI (Octet), receptor-Fc on anti-human IgG tips
T2 sequence (looked up): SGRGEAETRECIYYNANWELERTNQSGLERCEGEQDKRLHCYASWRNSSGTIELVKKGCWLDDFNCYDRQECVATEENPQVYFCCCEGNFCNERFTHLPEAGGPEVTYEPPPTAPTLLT

[7] = target: ActRIIA receptor-human-IgG1-Fc fusion protein (human) (UniProt P27037); assay: BLI (Octet), receptor-Fc on anti-human IgG tips
[8] = target: ALK3 receptor-human-IgG1-Fc fusion protein (human) (UniProt P36894); assay: BLI (Octet), receptor-Fc on anti-human IgG tips
[9] = target: T3, BMPRII receptor-human-IgG1-Fc fusion protein (human) (UniProt Q13873); assay: BLI (Octet), receptor-Fc on anti-human IgG tips
T3 sequence (looked up): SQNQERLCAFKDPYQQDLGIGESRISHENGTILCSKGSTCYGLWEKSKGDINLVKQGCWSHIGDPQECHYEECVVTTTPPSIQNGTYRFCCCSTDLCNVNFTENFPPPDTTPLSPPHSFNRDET

[10] = target: T4, ALK2 receptor-human-IgG1-Fc fusion protein (human) (UniProt Q04771); assay: BLI (Octet), receptor-Fc on anti-human IgG tips
T4 sequence (looked up): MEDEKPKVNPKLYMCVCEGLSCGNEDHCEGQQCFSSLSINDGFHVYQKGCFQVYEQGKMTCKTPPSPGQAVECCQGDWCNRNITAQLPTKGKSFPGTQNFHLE

Measured: binding

B1: designer BMPE (ligand)
chain: QAKHKQRKRLKSSCKRHPLYVDFSDVGWNDWIVAPPGYHAFYCDGECSFPLNAHMNATNHAIVQTLVHLMNPEYVPKPCCAPTELSAISMLYLDENEKVVLKNYQDMVVEGCGCR
modifications: N-linked glycan at N56 (CHO-produced)
binds: [1] | [2] | [3] | [4] | [5] | [6] | [7] | [8] | [9]

B2: designer BMP-GEP (ligand)
chain: B1 chain with V33I, H39A, S86N, M90V, L93F, E95D, E97S, K98N, V100I
binds: [5] | [6] | [7] | [8] | [10] | [9]

B3: designer BMP-GER (ligand)
chain: B1 chain with V33I, P36R, H39A, S86N, M90V, L93F, E95D, E97S, K98N, V100I
binds: [5] | [6] | [7] | [8] | [10] | [9]
